Experimental data published in the supplement of paper PMC10849652.
The list shows a part of the results.

Amino acid sequences for entries named in this document (tags omitted). A change or cut given only in a name is not applied to a line headed by its entry.
UniProt P84085: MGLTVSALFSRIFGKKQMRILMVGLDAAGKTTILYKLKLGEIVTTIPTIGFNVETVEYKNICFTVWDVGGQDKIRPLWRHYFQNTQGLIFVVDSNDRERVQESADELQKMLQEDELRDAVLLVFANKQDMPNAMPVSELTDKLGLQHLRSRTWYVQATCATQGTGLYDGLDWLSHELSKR
UniProt Q96GX9: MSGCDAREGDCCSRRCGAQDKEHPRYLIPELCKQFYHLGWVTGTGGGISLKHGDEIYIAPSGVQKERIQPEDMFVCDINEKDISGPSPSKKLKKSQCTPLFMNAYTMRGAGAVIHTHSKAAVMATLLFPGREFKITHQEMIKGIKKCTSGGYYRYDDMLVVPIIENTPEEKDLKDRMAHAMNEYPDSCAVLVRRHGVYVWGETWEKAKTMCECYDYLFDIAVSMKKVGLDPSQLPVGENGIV
UniProt Q9NVT9: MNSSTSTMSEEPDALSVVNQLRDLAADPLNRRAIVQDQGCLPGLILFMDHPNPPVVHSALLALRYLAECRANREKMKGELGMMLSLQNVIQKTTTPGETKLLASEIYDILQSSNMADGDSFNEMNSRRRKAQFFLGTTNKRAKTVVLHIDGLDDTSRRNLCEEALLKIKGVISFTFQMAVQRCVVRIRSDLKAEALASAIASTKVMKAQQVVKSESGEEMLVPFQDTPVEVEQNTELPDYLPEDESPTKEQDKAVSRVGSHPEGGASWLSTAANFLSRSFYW
UniProt Q9BUR5: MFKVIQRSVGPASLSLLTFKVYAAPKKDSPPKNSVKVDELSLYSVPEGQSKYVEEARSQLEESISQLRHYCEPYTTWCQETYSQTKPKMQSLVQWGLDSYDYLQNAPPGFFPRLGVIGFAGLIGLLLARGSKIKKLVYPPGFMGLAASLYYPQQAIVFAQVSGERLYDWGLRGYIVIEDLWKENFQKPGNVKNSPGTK
UniProt P02654: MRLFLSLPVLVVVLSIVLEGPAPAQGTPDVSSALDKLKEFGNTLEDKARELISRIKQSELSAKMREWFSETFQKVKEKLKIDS
UniProt O43299: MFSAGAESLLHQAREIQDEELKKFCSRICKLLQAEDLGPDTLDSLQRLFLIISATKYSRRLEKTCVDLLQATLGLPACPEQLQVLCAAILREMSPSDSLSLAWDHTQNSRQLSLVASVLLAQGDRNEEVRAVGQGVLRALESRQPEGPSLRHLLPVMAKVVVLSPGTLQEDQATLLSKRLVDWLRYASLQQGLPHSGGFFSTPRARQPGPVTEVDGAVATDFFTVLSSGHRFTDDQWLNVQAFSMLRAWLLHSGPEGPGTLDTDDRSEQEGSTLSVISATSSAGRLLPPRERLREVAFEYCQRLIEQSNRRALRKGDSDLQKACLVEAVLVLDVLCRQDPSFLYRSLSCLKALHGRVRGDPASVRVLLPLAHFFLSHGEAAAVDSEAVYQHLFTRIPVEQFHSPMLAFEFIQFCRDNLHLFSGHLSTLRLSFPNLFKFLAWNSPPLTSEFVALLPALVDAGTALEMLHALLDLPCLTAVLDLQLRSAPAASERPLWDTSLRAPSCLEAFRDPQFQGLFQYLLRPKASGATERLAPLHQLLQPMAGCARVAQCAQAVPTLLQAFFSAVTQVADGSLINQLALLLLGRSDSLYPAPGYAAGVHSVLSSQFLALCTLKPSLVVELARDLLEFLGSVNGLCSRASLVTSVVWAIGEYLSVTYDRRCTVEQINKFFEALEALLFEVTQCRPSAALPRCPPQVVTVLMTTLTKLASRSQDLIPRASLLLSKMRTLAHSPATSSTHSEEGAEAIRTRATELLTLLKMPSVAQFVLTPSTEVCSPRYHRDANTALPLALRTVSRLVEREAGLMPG
UniProt Q8N2F6: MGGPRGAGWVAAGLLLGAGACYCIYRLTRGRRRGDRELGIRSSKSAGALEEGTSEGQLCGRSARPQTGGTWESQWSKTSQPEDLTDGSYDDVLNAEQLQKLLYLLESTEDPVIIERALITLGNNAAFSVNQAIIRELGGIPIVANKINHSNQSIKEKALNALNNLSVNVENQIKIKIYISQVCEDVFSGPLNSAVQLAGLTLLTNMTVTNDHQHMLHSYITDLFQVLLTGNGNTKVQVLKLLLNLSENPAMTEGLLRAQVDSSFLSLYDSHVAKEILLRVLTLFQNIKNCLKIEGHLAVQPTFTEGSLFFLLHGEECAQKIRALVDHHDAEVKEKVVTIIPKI
UniProt P52566: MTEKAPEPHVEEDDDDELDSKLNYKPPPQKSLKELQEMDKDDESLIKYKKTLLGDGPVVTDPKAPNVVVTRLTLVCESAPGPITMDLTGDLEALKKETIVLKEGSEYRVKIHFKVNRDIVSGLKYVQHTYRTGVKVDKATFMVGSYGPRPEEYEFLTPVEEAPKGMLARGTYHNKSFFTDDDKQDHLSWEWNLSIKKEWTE
UniProt Q92619: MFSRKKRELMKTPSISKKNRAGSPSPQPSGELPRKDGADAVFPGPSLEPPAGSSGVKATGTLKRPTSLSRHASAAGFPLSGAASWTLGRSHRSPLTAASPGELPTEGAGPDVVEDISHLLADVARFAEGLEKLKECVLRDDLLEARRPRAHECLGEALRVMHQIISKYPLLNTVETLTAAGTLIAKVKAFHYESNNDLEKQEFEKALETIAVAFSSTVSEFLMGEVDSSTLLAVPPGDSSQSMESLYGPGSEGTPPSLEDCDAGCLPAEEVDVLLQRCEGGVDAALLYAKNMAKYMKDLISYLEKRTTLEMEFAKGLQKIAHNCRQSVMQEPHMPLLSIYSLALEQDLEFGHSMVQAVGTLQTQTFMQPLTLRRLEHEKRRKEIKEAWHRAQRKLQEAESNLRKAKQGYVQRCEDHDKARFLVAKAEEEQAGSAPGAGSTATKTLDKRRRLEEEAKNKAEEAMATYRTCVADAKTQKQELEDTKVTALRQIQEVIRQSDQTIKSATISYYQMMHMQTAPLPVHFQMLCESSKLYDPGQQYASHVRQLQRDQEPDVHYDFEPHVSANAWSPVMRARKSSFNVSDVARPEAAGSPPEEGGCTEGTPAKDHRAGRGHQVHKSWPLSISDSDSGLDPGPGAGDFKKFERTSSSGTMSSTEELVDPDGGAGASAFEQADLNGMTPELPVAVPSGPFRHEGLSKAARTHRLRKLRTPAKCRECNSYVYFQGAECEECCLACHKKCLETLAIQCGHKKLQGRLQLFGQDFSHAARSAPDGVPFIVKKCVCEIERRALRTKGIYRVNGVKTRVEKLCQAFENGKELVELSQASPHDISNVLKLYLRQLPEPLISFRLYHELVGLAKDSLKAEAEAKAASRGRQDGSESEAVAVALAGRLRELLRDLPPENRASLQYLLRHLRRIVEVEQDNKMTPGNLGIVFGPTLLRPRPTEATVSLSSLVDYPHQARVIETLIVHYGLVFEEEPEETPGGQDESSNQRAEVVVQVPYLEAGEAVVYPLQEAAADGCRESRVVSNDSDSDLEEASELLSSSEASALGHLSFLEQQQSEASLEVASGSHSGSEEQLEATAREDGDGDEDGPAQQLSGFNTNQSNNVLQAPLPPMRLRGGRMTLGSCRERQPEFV
UniProt Q9Y587: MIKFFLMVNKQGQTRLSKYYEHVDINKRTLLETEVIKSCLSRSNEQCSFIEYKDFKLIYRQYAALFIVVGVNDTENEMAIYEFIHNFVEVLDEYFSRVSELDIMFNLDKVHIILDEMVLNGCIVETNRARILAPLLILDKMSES
UniProt Q5T5U3: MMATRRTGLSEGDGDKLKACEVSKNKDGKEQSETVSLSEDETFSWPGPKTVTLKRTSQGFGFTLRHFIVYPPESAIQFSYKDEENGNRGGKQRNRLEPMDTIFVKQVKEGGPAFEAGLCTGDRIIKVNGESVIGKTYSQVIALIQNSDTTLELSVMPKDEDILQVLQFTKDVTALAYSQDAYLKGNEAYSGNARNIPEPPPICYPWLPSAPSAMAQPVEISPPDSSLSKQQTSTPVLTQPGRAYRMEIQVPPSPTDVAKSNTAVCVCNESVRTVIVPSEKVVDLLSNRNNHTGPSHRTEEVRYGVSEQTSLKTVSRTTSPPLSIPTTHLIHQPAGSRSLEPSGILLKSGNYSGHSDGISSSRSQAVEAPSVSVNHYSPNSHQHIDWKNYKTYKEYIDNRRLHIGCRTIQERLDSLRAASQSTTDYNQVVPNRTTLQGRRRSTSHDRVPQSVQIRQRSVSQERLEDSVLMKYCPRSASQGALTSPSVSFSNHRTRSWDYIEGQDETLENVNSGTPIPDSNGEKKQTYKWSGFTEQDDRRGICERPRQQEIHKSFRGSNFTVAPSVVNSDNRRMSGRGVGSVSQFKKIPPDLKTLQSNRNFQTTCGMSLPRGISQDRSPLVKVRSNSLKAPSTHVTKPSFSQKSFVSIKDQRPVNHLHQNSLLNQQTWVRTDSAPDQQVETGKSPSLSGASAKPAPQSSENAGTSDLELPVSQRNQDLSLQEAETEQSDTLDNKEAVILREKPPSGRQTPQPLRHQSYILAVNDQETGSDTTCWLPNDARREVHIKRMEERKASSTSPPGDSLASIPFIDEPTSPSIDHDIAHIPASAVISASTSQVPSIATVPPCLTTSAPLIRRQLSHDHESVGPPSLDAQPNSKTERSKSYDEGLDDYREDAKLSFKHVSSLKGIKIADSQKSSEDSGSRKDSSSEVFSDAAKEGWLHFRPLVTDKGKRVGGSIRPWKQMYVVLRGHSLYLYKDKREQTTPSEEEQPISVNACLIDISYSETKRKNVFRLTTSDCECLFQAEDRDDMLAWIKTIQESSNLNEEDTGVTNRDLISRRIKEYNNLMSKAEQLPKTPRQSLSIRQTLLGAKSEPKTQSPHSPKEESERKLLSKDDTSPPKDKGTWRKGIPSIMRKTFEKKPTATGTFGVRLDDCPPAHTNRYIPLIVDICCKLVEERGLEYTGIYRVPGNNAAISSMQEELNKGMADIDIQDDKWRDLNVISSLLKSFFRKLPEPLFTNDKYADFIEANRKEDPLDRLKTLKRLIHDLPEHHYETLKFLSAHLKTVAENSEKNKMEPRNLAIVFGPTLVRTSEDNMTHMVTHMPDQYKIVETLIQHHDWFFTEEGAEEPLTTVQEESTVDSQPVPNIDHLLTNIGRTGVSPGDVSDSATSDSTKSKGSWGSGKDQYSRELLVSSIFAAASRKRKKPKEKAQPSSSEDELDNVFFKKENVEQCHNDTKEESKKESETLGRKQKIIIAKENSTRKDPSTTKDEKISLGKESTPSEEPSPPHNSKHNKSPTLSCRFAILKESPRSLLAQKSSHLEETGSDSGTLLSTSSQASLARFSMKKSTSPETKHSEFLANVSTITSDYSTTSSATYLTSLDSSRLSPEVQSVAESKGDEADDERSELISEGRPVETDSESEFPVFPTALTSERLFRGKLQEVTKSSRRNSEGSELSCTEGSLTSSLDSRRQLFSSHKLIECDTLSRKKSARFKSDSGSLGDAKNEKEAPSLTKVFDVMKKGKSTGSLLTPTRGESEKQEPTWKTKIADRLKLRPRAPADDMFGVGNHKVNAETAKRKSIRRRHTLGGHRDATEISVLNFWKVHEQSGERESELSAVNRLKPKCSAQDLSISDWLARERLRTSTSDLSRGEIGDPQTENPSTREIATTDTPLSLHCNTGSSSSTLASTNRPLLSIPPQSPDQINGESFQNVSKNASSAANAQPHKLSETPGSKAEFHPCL
UniProt Q15052: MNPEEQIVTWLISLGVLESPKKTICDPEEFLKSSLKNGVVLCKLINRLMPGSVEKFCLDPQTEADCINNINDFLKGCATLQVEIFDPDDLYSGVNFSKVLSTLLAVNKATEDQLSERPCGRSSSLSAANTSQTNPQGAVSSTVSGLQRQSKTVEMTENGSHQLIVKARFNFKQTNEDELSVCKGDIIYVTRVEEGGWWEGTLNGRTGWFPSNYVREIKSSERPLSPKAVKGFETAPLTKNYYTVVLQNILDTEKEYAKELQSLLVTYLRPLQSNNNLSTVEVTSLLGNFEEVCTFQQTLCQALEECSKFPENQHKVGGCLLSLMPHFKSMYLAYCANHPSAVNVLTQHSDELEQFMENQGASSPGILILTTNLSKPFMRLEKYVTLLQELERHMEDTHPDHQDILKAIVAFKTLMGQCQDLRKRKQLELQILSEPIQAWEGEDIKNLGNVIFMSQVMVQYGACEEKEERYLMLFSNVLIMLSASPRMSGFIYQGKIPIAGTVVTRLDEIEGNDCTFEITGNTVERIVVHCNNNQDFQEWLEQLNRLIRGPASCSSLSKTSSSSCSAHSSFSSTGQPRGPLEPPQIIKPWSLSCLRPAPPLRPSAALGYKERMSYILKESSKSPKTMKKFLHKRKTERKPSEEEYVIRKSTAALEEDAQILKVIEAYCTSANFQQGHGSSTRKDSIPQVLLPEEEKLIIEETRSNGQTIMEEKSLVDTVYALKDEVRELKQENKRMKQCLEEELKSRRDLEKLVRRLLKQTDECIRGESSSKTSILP
UniProt Q9NVJ2: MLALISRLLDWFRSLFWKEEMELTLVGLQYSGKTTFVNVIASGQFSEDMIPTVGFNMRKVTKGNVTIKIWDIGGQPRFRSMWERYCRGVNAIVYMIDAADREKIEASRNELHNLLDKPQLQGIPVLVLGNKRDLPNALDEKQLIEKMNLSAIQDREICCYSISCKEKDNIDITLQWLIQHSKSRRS

Assays:
Test in all cases: log2 fold change, soluble protein after heating vs DMSO (PISA); higher = thermal stabilisation; K562 lysate, 10 uM; active = over 0.2 and 3.5 SD of the protein, either way, in both replicates (recomputed)
vemurafenib = compound: CCCS(=O)(=O)Nc1ccc(F)c(C(=O)c2c[nH]c3ncc(-c4ccc(Cl)cc4)cc23)c1F [vemurafenib]
Procedure, shortened: (§1)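 Soluble protein was defined as the supernatant remaining after 21,000xg for 90 min, following pooling of heated aliquots and adjustment to 0.5% NP-40 at 4°C. Before that, crude K562 extract at 1 mg/mL protein in PBS pH 7.4 with 1 mM MgCl2 was treated with 10 μM compound for 30 min and heated for 3 min across 48°C-58°C. Quantification used TMTpro 16plex LC-MS/MS with channel sums equalised, and values are log-two fold changes in thermal stability relative to solvent controls from duplicates.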

[1] = compound: CCCS(=O)(=O)Nc1ccc(F)c(C(=O)c2c[nH]c3ncc(Cl)cc23)c1F
Procedure, shortened: as §1

barasertib = compound: CCN(CCCOc1ccc2c(Nc3cc(CC(=O)Nc4cccc(F)c4)[nH]n3)ncnc2c1)CCOP(=O)(O)O [barasertib]
Procedure, shortened: as §1

[2] = compound: CC[C@@H]1C(=O)N(C)c2cnc(Nc3ccc(C(=O)NC4CCN(C)CC4)cc3OC)nc2N1C1CCCC1
Procedure, shortened: as §1

volasertib = compound: CC[C@@H]1C(=O)N(C)c2cnc(Nc3ccc(C(=O)N[C@H]4CC[C@H](N5CCN(CC6CC6)CC5)CC4)cc3OC)nc2N1C(C)C [volasertib]
Procedure, shortened: as §1

[3] = compound: CCn1c(C(=O)N(C2CC2)C2CC2)cc2c3c(ncn3C)c(Nc3cc(C)n(C)n3)nc21
Procedure, shortened: as §1

[4] = compound: CCn1cc(-c2ccnc3[nH]c(-c4cccc(CN(C)C)c4)cc23)c(-c2ccc(NC(=O)N(C)C)cc2)n1
Procedure, shortened: as §1

[5] = compound: CN1CCC(CNc2ccc3ncc(-c4cccc(OC(F)(F)F)c4)n3n2)CC1
Procedure, shortened: as §1

saracatinib = compound: CN1CCN(CCOc2cc(OC3CCOCC3)c3c(Nc4c(Cl)ccc5c4OCO5)ncnc3c2)CC1 [saracatinib]
Procedure, shortened: as §1

sotrastaurin = compound: CN1CCN(c2nc(C3=C(c4c[nH]c5ccccc45)C(=O)NC3=O)c3ccccc3n2)CC1 [sotrastaurin]
Procedure, shortened: as §1

alvocidib = compound: CN1CC[C@H](c2c(O)cc(O)c3c(=O)cc(-c4ccccc4Cl)oc23)[C@H](O)C1 [alvocidib]
Procedure, shortened: as §1

Tubastatin A = compound: CN1CCc2c(c3ccccc3n2Cc2ccc(C(=O)NO)cc2)C1 [Tubastatin A]
Procedure, shortened: as §1

[6] = compound: CNC(=O)C1=CC=CC=C1NC2=NC(=NC=C2Cl)NC3=C(C=C(C=C3)N4CCOCC4)OC
Procedure, shortened: as §1

defactinib = compound: CNC(=O)c1ccc(Nc2ncc(C(F)(F)F)c(NCc3nccnc3N(C)S(C)(=O)=O)n2)cc1 [defactinib]
Procedure, shortened: as §1

[7] = compound: CNc1nc(-c2ccc3c(N)n[nH]c3c2)cc(N2C[C@@H](C(=O)NC3CCCCC3)CC[C@H]2C)n1
Procedure, shortened: as §1

encorafenib = compound: COC(=O)N[C@@H](C)CNc1nccc(-c2cn(C(C)C)nc2-c2cc(Cl)cc(NS(C)(=O)=O)c2F)n1 [encorafenib]
Procedure, shortened: as §1

[8] = compound: COC(=O)[C@H](CCSC)NC(=O)C1=C(C=C(C=C1)NC[C@H](CS)N)C2=CC=CC=C2
Procedure, shortened: as §1

alisertib = compound: COc1cc(Nc2ncc3c(n2)-c2ccc(Cl)cc2C(c2c(F)cccc2OC)=NC3)ccc1C(=O)O [alisertib]
Procedure, shortened: as §1

[9] = compound: COc1cc2nc(-c3cc(F)ccc3O)nc(N[C@@H]3CNC[C@H]3C(C)(C)O)c2cc1OC
Procedure, shortened: as §1

gefitinib = compound: COc1cc2ncnc(Nc3ccc(F)c(Cl)c3)c2cc1OCCCN1CCOCC1 [gefitinib]
Procedure, shortened: as §1

Measured: log2 fold change

ARF5 (UniProt P84085)
inactive: vemurafenib -0.009 | [1] 0.007 | barasertib -0.022 | [2] 0.017 | volasertib 0.035 | [3] 0.009 | [4] -0.071 | [5] 0.043 | saracatinib -0.032 | sotrastaurin 0.028 | alvocidib -0.043 | Tubastatin A 0.069 | [6] 0.06 | defactinib 0.026 | [7] 0.061 | encorafenib 0.013 | [8] -0.001 | alisertib 0.019 | [9] -0.011 | gefitinib -0.028

APIP (UniProt Q96GX9)
inactive: vemurafenib -0.009 | [1] 0.024 | barasertib 0.095 | [2] 0.041 | volasertib 0.038 | [3] -0.058 | [4] -0.145 | [5] 0.135 | saracatinib 0.021 | sotrastaurin -0.035 | alvocidib -0.089 | Tubastatin A 0.017 | [6] -0.037 | defactinib 0.025 | [7] -0.003 | encorafenib 0.08 | [8] -0.074 | alisertib 0.011 | [9] 0.044 | gefitinib 0.018

ARMC1 (UniProt Q9NVT9)
inactive: vemurafenib 0.038 | [1] 0.046 | barasertib 0 | [2] 0.01 | volasertib -0.018 | [3] 0.007 | [4] -0.027 | [5] 0.006 | saracatinib -0.005 | sotrastaurin -0.003 | alvocidib -0.032 | Tubastatin A -0.014 | [6] 0.011 | defactinib -0.024 | [7] 0.039 | encorafenib 0.016 | [8] -0.07 | alisertib 0.003 | [9] 0.01 | gefitinib -0.029

APOO (UniProt Q9BUR5)
inactive: vemurafenib -0.074 | [1] 0.008 | barasertib 0.056 | [2] -0.107 | volasertib 0.051 | [3] -0.036 | [4] 0.052 | [5] -0.03 | saracatinib -0.002 | sotrastaurin 0.005 | alvocidib 0.066 | Tubastatin A -0.083 | [6] 0.014 | defactinib 0.003 | [7] 0.001 | encorafenib 0.07 | [8] 0.012 | alisertib 0.006 | [9] -0.03 | gefitinib -0.033

APOC1 (UniProt P02654)
inactive: vemurafenib 0.274 | [1] -0.039 | barasertib -0.132 | [2] -0.042 | volasertib 0.081 | [3] -0.009 | [4] 0.21 | [5] -0.332 | saracatinib 0.094 | sotrastaurin -0.035 | alvocidib 0.154 | Tubastatin A -0.107 | [6] -0.089 | defactinib -0.19 | [7] 0.075 | encorafenib 0 | [8] -0.001 | alisertib -0.023 | [9] -0.071 | gefitinib -0.097

ARHGEF1 (UniProt M0QZR4)
inactive: vemurafenib 0.014 | [1] 0.004 | barasertib 0.023 | [2] -0.025 | volasertib -0.041 | [3] 0.014 | [4] -0.08 | [5] 0.013 | saracatinib 0.009 | sotrastaurin 0.018 | alvocidib 0.011 | Tubastatin A -0.085 | [6] 0.016 | defactinib -0.005 | [7] -0.016 | encorafenib 0.022 | [8] 0.063 | alisertib 0.001 | [9] -0.01 | gefitinib -0.014

AP5Z1 (UniProt O43299)
inactive: vemurafenib 0.155 | [1] 0.054 | barasertib 0.031 | [2] 0.096 | volasertib 0.056 | [3] 0.021 | [4] -0.161 | [5] 0.068 | saracatinib 0.008 | sotrastaurin -0.002 | alvocidib -0.015 | Tubastatin A -0.032 | [6] 0.037 | defactinib -0.065 | [7] 0.043 | encorafenib -0.012 | [8] 0.014 | alisertib -0.02 | [9] 0.077 | gefitinib 0.005

ARMC10 (UniProt Q8N2F6)
inactive: vemurafenib 0.032 | [1] -0.011 | barasertib 0.051 | [2] -0.038 | volasertib -0.026 | [3] 0.024 | [4] -0.018 | [5] 0.025 | saracatinib -0.021 | sotrastaurin 0.026 | alvocidib 0.025 | Tubastatin A 0.035 | [6] -0.006 | defactinib 0.006 | [7] 0.022 | encorafenib -0.005 | [8] 0.037 | alisertib 0.039 | [9] 0.062 | gefitinib 0.009

ARHGDIB (UniProt P52566)
inactive: vemurafenib -0.015 | [1] -0.027 | barasertib -0.028 | [2] -0.017 | volasertib 0.022 | [3] -0.001 | [4] 0.065 | [5] 0 | saracatinib -0.024 | sotrastaurin 0.003 | alvocidib 0.014 | Tubastatin A 0.05 | [6] -0.008 | defactinib -0.025 | [7] -0.026 | encorafenib 0.002 | [8] -0.004 | alisertib -0.011 | [9] 0.01 | gefitinib 0.006

ARHGAP45 isoform 2 (UniProt Q92619)
inactive: vemurafenib 0.017 | [1] -0.005 | barasertib -0.087 | [2] 0.023 | volasertib -0.047 | [3] -0.004 | [4] 0.012 | [5] 0.004 | saracatinib -0.032 | sotrastaurin -0.025 | alvocidib -0.015 | Tubastatin A -0.017 | [6] -0.004 | defactinib -0.028 | [7] -0.079 | encorafenib 0.02 | [8] -0.05 | alisertib -0.021 | [9] -0.001 | gefitinib 0.001

ASAP1 isoform 2 (UniProt Q9ULH1)
inactive: vemurafenib -0.016 | [1] 0.025 | barasertib -0.023 | [2] 0.012 | volasertib -0.011 | [3] -0.015 | [4] -0.01 | [5] 0.017 | saracatinib 0.007 | sotrastaurin 0.017 | alvocidib -0.026 | Tubastatin A 0.015 | [6] -0.003 | defactinib -0.036 | [7] 0.025 | encorafenib -0.03 | [8] 0.064 | alisertib -0.01 | [9] 0.006 | gefitinib -0.02

AP4S1 (UniProt Q9Y587)
inactive: vemurafenib 0.02 | [1] -0.008 | barasertib -0.051 | [2] -0.183 | volasertib -0.032 | [3] 0.087 | [4] -0.063 | [5] -0.019 | saracatinib 0.06 | sotrastaurin 0.044 | alvocidib 0.004 | Tubastatin A -0.107 | [6] -0.046 | defactinib -0.062 | [7] -0.096 | encorafenib 0.001 | [8] -0.039 | alisertib -0.081 | [9] 0.01 | gefitinib 0.042

ARHGAP21 (UniProt Q5T5U3)
inactive: vemurafenib 0.107 | [1] 0.073 | barasertib 0.061 | [2] -0.01 | volasertib -0.027 | [3] 0.037 | [4] 0.043 | [5] -0.202 | saracatinib 0.034 | sotrastaurin 0.023 | alvocidib 0.032 | Tubastatin A 0.008 | [6] 0.03 | defactinib 0.015 | [7] 0.056 | encorafenib 0.079 | [8] 0.101 | alisertib -0.023 | [9] -0.007 | gefitinib -0.095

Two successive entries already listed:
AP5Z1 (UniProt O43299)
inactive: vemurafenib 0.155 | [1] 0.054 | barasertib 0.031 | [2] 0.096 | volasertib 0.056 | [3] 0.021 | [4] -0.161 | [5] 0.068 | saracatinib 0.008 | sotrastaurin -0.002 | alvocidib -0.015 | Tubastatin A -0.032 | [6] 0.037 | defactinib -0.065 | [7] 0.043 | encorafenib -0.012 | [8] 0.014 | alisertib -0.02 | [9] 0.077 | gefitinib 0.005

ARMC10 (UniProt Q8N2F6)
inactive: vemurafenib 0.032 | [1] -0.011 | barasertib 0.051 | [2] -0.038 | volasertib -0.026 | [3] 0.024 | [4] -0.018 | [5] 0.025 | saracatinib -0.021 | sotrastaurin 0.026 | alvocidib 0.025 | Tubastatin A 0.035 | [6] -0.006 | defactinib 0.006 | [7] 0.022 | encorafenib -0.005 | [8] 0.037 | alisertib 0.039 | [9] 0.062 | gefitinib 0.009

Later entries:

ARPC3 (UniProt O15145)
inactive: vemurafenib 0.016 | [1] 0.036 | barasertib -0.006 | [2] 0.014 | volasertib -0.005 | [3] 0.044 | [4] 0.039 | [5] -0.072 | saracatinib 0.021 | sotrastaurin -0.011 | alvocidib 0.084 | Tubastatin A 0.018 | [6] 0.007 | defactinib 0.05 | [7] -0.011 | encorafenib 0 | [8] 0.011 | alisertib 0.001 | [9] -0.043 | gefitinib 0.025

ARHGEF6 (UniProt Q15052)
inactive: vemurafenib -0.015 | [1] -0.009 | barasertib 0.136 | [2] -0.001 | volasertib 0.041 | [3] 0.04 | [4] -0.022 | [5] -0.048 | saracatinib 0.074 | sotrastaurin 0.024 | alvocidib 0.019 | Tubastatin A -0.246 | [6] 0.011 | defactinib 0.05 | [7] 0.04 | encorafenib 0.053 | [8] 0.036 | alisertib 0.035 | [9] 0.028 | gefitinib -0.097

ARL8B (UniProt Q9NVJ2)
inactive: vemurafenib -0.007 | [1] -0.017 | barasertib -0.03 | [2] 0.088 | volasertib 0.028 | [3] 0.007 | [4] -0.128 | [5] 0.049 | saracatinib 0.009 | sotrastaurin 0.046 | alvocidib -0.077 | Tubastatin A -0.031 | [6] 0 | defactinib 0.036 | [7] 0.011 | encorafenib 0.04 | [8] -0.05 | alisertib 0.029 | [9] 0.053 | gefitinib 0.042
